Measurements reported in PubChem BioAssay AID1259254 (NCATS, 2017).

- Assay: 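Gene knock-downs that lead to re-replication, shown by excess G2 DNA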 (primary screen)
- Cells: human HCT116 colorectal cancer cells
- Reagents: single siRNA against human genes
- Time to read-out: 3 days
- Measurement: 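Imaged Hoechst DNA stain sorts each cell into a cycle phase by DNA amount; per plate, G2 fraction set to 0% for non-targeting and 100% for GMNN siRNA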
- Scale: G2 robust z-score and G2 cells, % of GMNN control: higher = more G2 cells, more excess DNA replication
- Active means: 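An siRNA counts as active if its G2 robust z-score lies at least 5 MADs above the screen median; here such calls match roughly 38% of GMNN control or more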
Here is one part, drawn at random, of about 59,000 deposited reagents. Of all reagents, about 1,550 (2.6%) got an active call. 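G2 share is only a proxy for re-replication; each gene was hit by three separate siRNAs, and active genes were retested.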 Unmarked entries are inactive. Reagents against one gene are numbered here. Not all columns of the deposit are shown. The record does not give: the amount of reagent.

How did the screen score GNG2 #1?
G2 robust z-score: -1.17; G2 cells, % of GMNN control: -5.27

For GNG2 #2, what was measured?
G2 robust z-score: 0.0099; G2 cells, % of GMNN control: 3.04

For GNG2 #3, what does the deposit list?
G2 robust z-score: -1.14; G2 cells, % of GMNN control: -5.02

For KCNJ16 #1, what was measured?
G2 robust z-score: -0.293; G2 cells, % of GMNN control: 0.906

What did the screen give for KCNJ16 #2?
G2 robust z-score: -0.23; G2 cells, % of GMNN control: 1.35

Which result is listed for KCNJ16 #3?
G2 robust z-score: -0.151; G2 cells, % of GMNN control: 1.91

Which result is listed for ENOX2 #1?
G2 robust z-score: 0.145; G2 cells, % of GMNN control: 3.98

With ENOX2 #2, what was measured?
G2 robust z-score: 0.0759; G2 cells, % of GMNN control: 3.5

How did the screen score ENOX2 #3?
G2 robust z-score: -0.662; G2 cells, % of GMNN control: -1.69

With SLC26A7 #1, what does the deposit list?
G2 robust z-score: 1.24; G2 cells, % of GMNN control: 11.7

What did the screen give for SLC26A7 #2?
G2 robust z-score: 0.232; G2 cells, % of GMNN control: 4.6

Which result is listed for SLC26A7 #3?
G2 robust z-score: 1.5; G2 cells, % of GMNN control: 13.5

With ERCC6L #1, what does the deposit list?
G2 robust z-score: -0.959; G2 cells, % of GMNN control: -3.78

For ERCC6L #2, what does the deposit list?
G2 robust z-score: -0.714; G2 cells, % of GMNN control: -2.06

Which result is listed for ERCC6L #3?
G2 robust z-score: -0.161; G2 cells, % of GMNN control: 1.84

Reformatted: entries from further up.
{"target":"ERCC6L","siRNA no.":1,"G2 robust z-score":-0.959,"G2 cells, % of GMNN control":-3.78}
{"target":"ERCC6L","siRNA no.":2,"G2 robust z-score":-0.714,"G2 cells, % of GMNN control":-2.06}
{"target":"ERCC6L","siRNA no.":3,"G2 robust z-score":-0.161,"G2 cells, % of GMNN control":1.84}

Further reagents follow:
What is on record for SIRPG #1?
G2 robust z-score: -0.267; G2 cells, % of GMNN control: 1.09

How did the screen score SIRPG #2?
G2 robust z-score: 0.683; G2 cells, % of GMNN control: 7.77

With SIRPG #3, what was measured?
G2 robust z-score: -0.147; G2 cells, % of GMNN control: 1.93

With ZNF772 #1, how do the results read?
G2 robust z-score: 3.92; G2 cells, % of GMNN control: 30.6

What did the screen give for ZNF772 #2?
G2 robust z-score: 0.947; G2 cells, % of GMNN control: 9.63

What is on record for ZNF772 #3?
G2 robust z-score: 2.57; G2 cells, % of GMNN control: 21

For HAVCR2 #1, what does the deposit list?
G2 robust z-score: 2.12; G2 cells, % of GMNN control: 17.9

What did the screen give for HAVCR2 #2?
G2 robust z-score: 1.14; G2 cells, % of GMNN control: 11

Which result is listed for HAVCR2 #3?
G2 robust z-score: -0.378; G2 cells, % of GMNN control: 0.306
